Assay results published in the supplement of paper PMC7646827.
Counter-ions that a name gives are not always drawn. Repeats are few or missing, and single values can be far off.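 All cells are established human bladder cancer lines, one of them grown from a patient-derived xenograft. Viability was read by a luminescent ATP assay as percent inhibition versus vehicle over a seven-point dilution series; the paper calls scores above 59 very active, 30–59 active, 21–29 semi-active, 9–20 low active and below 9 inactive.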

Legend:
Assay in all cases: drug sensitivity score DSS3 (score 0-100); higher = more sensitive; extreme values may be limits of the assay
Conditions in all cases: culture: 3D, ultra-low attachment; treatment time: 5 days
UM-UC-5 = system: UM-UC-5
UM-UC-6 = system: UM-UC-6
UM-UC-15 = system: UM-UC-15
T-24 = system: T-24
UM-UC-17 = system: UM-UC-17
UM-UC-12 = system: UM-UC-12
SCaBER = system: SCaBER
BC8149 = system: BC8149
UM-UC-18 = system: UM-UC-18
UM-UC-1 = system: UM-UC-1
UM-UC-14 = system: UM-UC-14
5637 = system: 5637
TCCSUP = system: TCCSUP
J82 = system: J82
UM-UC-3 = system: UM-UC-3
SW780 = system: SW780
UM-UC-9 = system: UM-UC-9

## CC[C@H](Nc1ncnc2[nH]cnc12)c1oc2ccccc2c(=O)c1-c1cccc(F)c1 [Tenalisib (RP6530)] (max dose 10000 nM)
UM-UC-5
  drug sensitivity score DSS3: 0
UM-UC-6
  drug sensitivity score DSS3: 0.00599
UM-UC-15
  drug sensitivity score DSS3: 0
T-24
  drug sensitivity score DSS3: 0
UM-UC-17
  drug sensitivity score DSS3: 0
UM-UC-12
  drug sensitivity score DSS3: 0
SCaBER
  drug sensitivity score DSS3: 0
BC8149
  drug sensitivity score DSS3: 0
UM-UC-18
  drug sensitivity score DSS3: 0.0195
UM-UC-1
  drug sensitivity score DSS3: 0
UM-UC-14
  drug sensitivity score DSS3: 0
5637
  drug sensitivity score DSS3: 0
TCCSUP
  drug sensitivity score DSS3: 0
J82
  drug sensitivity score DSS3: 0
UM-UC-3
  drug sensitivity score DSS3: 0
SW780
  drug sensitivity score DSS3: 0
UM-UC-9
  drug sensitivity score DSS3: 0

## O=C(O)Cc1cccc(OCCCN(Cc2cccc(C(F)(F)F)c2Cl)CC(c2ccccc2)c2ccccc2)c1 [GW3965 HCl] (max dose 10000 nM)
UM-UC-5
  drug sensitivity score DSS3: 0
UM-UC-6
  drug sensitivity score DSS3: 0.599
UM-UC-15
  drug sensitivity score DSS3: 0
T-24
  drug sensitivity score DSS3: 0
UM-UC-17
  drug sensitivity score DSS3: 0.455
UM-UC-12
  drug sensitivity score DSS3: 6.35
SCaBER
  drug sensitivity score DSS3: 1.04
BC8149
  drug sensitivity score DSS3: 5.11
UM-UC-18
  drug sensitivity score DSS3: 1.55
UM-UC-1
  drug sensitivity score DSS3: 0.0775
UM-UC-14
  drug sensitivity score DSS3: 1.81
5637
  drug sensitivity score DSS3: 0.404
TCCSUP
  drug sensitivity score DSS3: 11.1
J82
  drug sensitivity score DSS3: 0
UM-UC-3
  drug sensitivity score DSS3: 4.13
SW780
  drug sensitivity score DSS3: 0
UM-UC-9
  drug sensitivity score DSS3: 0

## CCCCCCCCCCCCCCCCn1cc[n+](Cc2ccccc2)c1C [NH125] (max dose 10000 nM)
UM-UC-5
  drug sensitivity score DSS3: 0.317
UM-UC-6
  drug sensitivity score DSS3: 0
UM-UC-15
  drug sensitivity score DSS3: 5.76
T-24
  drug sensitivity score DSS3: 0
UM-UC-17
  drug sensitivity score DSS3: 0.497
UM-UC-12
  drug sensitivity score DSS3: 0.182
SCaBER
  drug sensitivity score DSS3: 2.53
BC8149
  drug sensitivity score DSS3: 2.49
UM-UC-18
  drug sensitivity score DSS3: 0.864
UM-UC-1
  drug sensitivity score DSS3: 1.89
UM-UC-14
  drug sensitivity score DSS3: 0.619
5637
  drug sensitivity score DSS3: 3.08
TCCSUP
  drug sensitivity score DSS3: 4.59
J82
  drug sensitivity score DSS3: 0
UM-UC-3
  drug sensitivity score DSS3: 1.85
SW780
  drug sensitivity score DSS3: 0
UM-UC-9
  drug sensitivity score DSS3: 0

## Cn1cc(C2=C(c3cn(C4CCN(Cc5ccccn5)CC4)c4ccccc34)C(=O)NC2=O)c2ccccc21 (max dose 10000 nM)
UM-UC-5
  drug sensitivity score DSS3: 0
UM-UC-6
  drug sensitivity score DSS3: 0
UM-UC-15
  drug sensitivity score DSS3: 0
T-24
  drug sensitivity score DSS3: 0
UM-UC-17
  drug sensitivity score DSS3: 1.32
UM-UC-12
  drug sensitivity score DSS3: 0.228
SCaBER
  drug sensitivity score DSS3: 1.07
BC8149
  drug sensitivity score DSS3: 3.33
UM-UC-18
  drug sensitivity score DSS3: 0.454
UM-UC-1
  drug sensitivity score DSS3: 0
UM-UC-14
  drug sensitivity score DSS3: 0.871
5637
  drug sensitivity score DSS3: 2.88
TCCSUP
  drug sensitivity score DSS3: 2.45
J82
  drug sensitivity score DSS3: 3.79
UM-UC-3
  drug sensitivity score DSS3: 0
SW780
  drug sensitivity score DSS3: 1.86
UM-UC-9
  drug sensitivity score DSS3: 0.152

## O=C(Nc1ccccc1)N1CCN(c2nc(-c3ccccc3)ns2)CC1 (max dose 10000 nM)
UM-UC-5
  drug sensitivity score DSS3: 0
UM-UC-6
  drug sensitivity score DSS3: 0
UM-UC-15
  drug sensitivity score DSS3: 0
T-24
  drug sensitivity score DSS3: 0
UM-UC-17
  drug sensitivity score DSS3: 0
UM-UC-12
  drug sensitivity score DSS3: 0.0171
SCaBER
  drug sensitivity score DSS3: 0
BC8149
  drug sensitivity score DSS3: 0
UM-UC-18
  drug sensitivity score DSS3: 0
UM-UC-1
  drug sensitivity score DSS3: 0
UM-UC-14
  drug sensitivity score DSS3: 0
5637
  drug sensitivity score DSS3: 0
TCCSUP
  drug sensitivity score DSS3: 0
J82
  drug sensitivity score DSS3: 0
UM-UC-3
  drug sensitivity score DSS3: 0
SW780
  drug sensitivity score DSS3: 0
UM-UC-9
  drug sensitivity score DSS3: 0

## COc1c(-c2ccc3cc(NS(C)(=O)=O)ccc3c2)cc(-n2ccc(=O)[nH]c2=O)cc1C(C)(C)C [Dasabuvir(ABT-333)] (max dose 10000 nM)
UM-UC-5
  drug sensitivity score DSS3: 0
UM-UC-6
  drug sensitivity score DSS3: 0
UM-UC-15
  drug sensitivity score DSS3: 0.19
T-24
  drug sensitivity score DSS3: 0
UM-UC-17
  drug sensitivity score DSS3: 0
UM-UC-12
  drug sensitivity score DSS3: 0
SCaBER
  drug sensitivity score DSS3: 0
BC8149
  drug sensitivity score DSS3: 0
UM-UC-18
  drug sensitivity score DSS3: 0
UM-UC-1
  drug sensitivity score DSS3: 0
UM-UC-14
  drug sensitivity score DSS3: 0
5637
  drug sensitivity score DSS3: 0
TCCSUP
  drug sensitivity score DSS3: 0
J82
  drug sensitivity score DSS3: 0
UM-UC-3
  drug sensitivity score DSS3: 0.0132
SW780
  drug sensitivity score DSS3: 0
UM-UC-9
  drug sensitivity score DSS3: 0

## O=C(O)c1ccc2c(c1)nc(Nc1cccc(Cl)c1)c1ccncc12 [CX-4945 (Silmitasertib)] (max dose 10000 nM)
UM-UC-5
  drug sensitivity score DSS3: 0
UM-UC-6
  drug sensitivity score DSS3: 0
UM-UC-15
  drug sensitivity score DSS3: 0
T-24
  drug sensitivity score DSS3: 0
UM-UC-17
  drug sensitivity score DSS3: 0
UM-UC-12
  drug sensitivity score DSS3: 0
SCaBER
  drug sensitivity score DSS3: 0.582
BC8149
  drug sensitivity score DSS3: 1.11
UM-UC-18
  drug sensitivity score DSS3: 0
UM-UC-1
  drug sensitivity score DSS3: 0
UM-UC-14
  drug sensitivity score DSS3: 0
5637
  drug sensitivity score DSS3: 0.694
TCCSUP
  drug sensitivity score DSS3: 0
J82
  drug sensitivity score DSS3: 0
UM-UC-3
  drug sensitivity score DSS3: 0
SW780
  drug sensitivity score DSS3: 0
UM-UC-9
  drug sensitivity score DSS3: 0

## COc1cc2c(cc1OCCCN1CCCC1)N=C(N)C21CCC1 [A-366] (max dose 10000 nM)
UM-UC-5
  drug sensitivity score DSS3: 0
UM-UC-6
  drug sensitivity score DSS3: 0
UM-UC-15
  drug sensitivity score DSS3: 5.43
T-24
  drug sensitivity score DSS3: 0
UM-UC-17
  drug sensitivity score DSS3: 0
UM-UC-12
  drug sensitivity score DSS3: 0
SCaBER
  drug sensitivity score DSS3: 0
BC8149
  drug sensitivity score DSS3: 0.474
UM-UC-18
  drug sensitivity score DSS3: 2.99
UM-UC-1
  drug sensitivity score DSS3: 0
UM-UC-14
  drug sensitivity score DSS3: 0.292
5637
  drug sensitivity score DSS3: 1.02
TCCSUP
  drug sensitivity score DSS3: 1.76
J82
  drug sensitivity score DSS3: 0
UM-UC-3
  drug sensitivity score DSS3: 0.00585
SW780
  drug sensitivity score DSS3: 0
UM-UC-9
  drug sensitivity score DSS3: 0

## O=c1cc(N2CCOCC2)oc2c(-c3ccccc3)cccc12 (max dose 10000 nM)
UM-UC-5
  drug sensitivity score DSS3: 1.15
UM-UC-6
  drug sensitivity score DSS3: 2.8
UM-UC-15
  drug sensitivity score DSS3: 33
T-24
  drug sensitivity score DSS3: 8.5
UM-UC-17
  drug sensitivity score DSS3: 7.35
UM-UC-12
  drug sensitivity score DSS3: 6.8
SCaBER
  drug sensitivity score DSS3: 1.02
BC8149
  drug sensitivity score DSS3: 10
UM-UC-18
  drug sensitivity score DSS3: 4.9
UM-UC-1
  drug sensitivity score DSS3: 4.32
UM-UC-14
  drug sensitivity score DSS3: 10.9
5637
  drug sensitivity score DSS3: 7.63
TCCSUP
  drug sensitivity score DSS3: 27.3
J82
  drug sensitivity score DSS3: 0.503
UM-UC-3
  drug sensitivity score DSS3: 1.44
SW780
  drug sensitivity score DSS3: 1.97
UM-UC-9
  drug sensitivity score DSS3: 3.66

## CC[C@H](CO)Nc1nc(NCc2ccccc2)c2ncn(C(C)C)c2n1 [Roscovitine (Seliciclib,CYC202)] (max dose 10000 nM)
UM-UC-5
  drug sensitivity score DSS3: 0
UM-UC-6
  drug sensitivity score DSS3: 0
UM-UC-15
  drug sensitivity score DSS3: 0
T-24
  drug sensitivity score DSS3: 0
UM-UC-17
  drug sensitivity score DSS3: 8.76
UM-UC-12
  drug sensitivity score DSS3: 3.41
SCaBER
  drug sensitivity score DSS3: 6.68
BC8149
  drug sensitivity score DSS3: 18
UM-UC-18
  drug sensitivity score DSS3: 8.54
UM-UC-1
  drug sensitivity score DSS3: 7.18
UM-UC-14
  drug sensitivity score DSS3: 8.62
5637
  drug sensitivity score DSS3: 22.5
TCCSUP
  drug sensitivity score DSS3: 30.9
J82
  drug sensitivity score DSS3: 3.45
UM-UC-3
  drug sensitivity score DSS3: 2.31
SW780
  drug sensitivity score DSS3: 6.56
UM-UC-9
  drug sensitivity score DSS3: 0

## CN(C)CCCn1cc(C2=C(c3c[nH]c4ccccc34)C(=O)NC2=O)c2ccccc21 (max dose 10000 nM)
UM-UC-5
  drug sensitivity score DSS3: 1.06
UM-UC-6
  drug sensitivity score DSS3: 0
UM-UC-15
  drug sensitivity score DSS3: 4.31
T-24
  drug sensitivity score DSS3: 0
UM-UC-17
  drug sensitivity score DSS3: 0
UM-UC-12
  drug sensitivity score DSS3: 0
SCaBER
  drug sensitivity score DSS3: 0
BC8149
  drug sensitivity score DSS3: 0
UM-UC-18
  drug sensitivity score DSS3: 0
UM-UC-1
  drug sensitivity score DSS3: 0
UM-UC-14
  drug sensitivity score DSS3: 0
5637
  drug sensitivity score DSS3: 0
TCCSUP
  drug sensitivity score DSS3: 0
J82
  drug sensitivity score DSS3: 0
UM-UC-3
  drug sensitivity score DSS3: 0
SW780
  drug sensitivity score DSS3: 0
UM-UC-9
  drug sensitivity score DSS3: 0

## CC1(C)CCC(c2ccc(Cl)cc2)=C(CN2CCN(c3ccc(C(=O)NS(=O)(=O)c4ccc(N[C@H](CCN5CCOCC5)CSc5ccccc5)c(S(=O)(=O)C(F)(F)F)c4)cc3)CC2)C1 [ABT-263 (Navitoclax)] (max dose 10000 nM)
UM-UC-5
  drug sensitivity score DSS3: 37.2
UM-UC-6
  drug sensitivity score DSS3: 29
UM-UC-15
  drug sensitivity score DSS3: 0
T-24
  drug sensitivity score DSS3: 16.7
UM-UC-17
  drug sensitivity score DSS3: 46.6
UM-UC-12
  drug sensitivity score DSS3: 49.1
SCaBER
  drug sensitivity score DSS3: 39.8
BC8149
  drug sensitivity score DSS3: 59.6
UM-UC-18
  drug sensitivity score DSS3: 29.6
UM-UC-1
  drug sensitivity score DSS3: 54.7
UM-UC-14
  drug sensitivity score DSS3: 20.8
5637
  drug sensitivity score DSS3: 70.4
TCCSUP
  drug sensitivity score DSS3: 65.7
J82
  drug sensitivity score DSS3: 16.9
UM-UC-3
  drug sensitivity score DSS3: 26.7
SW780
  drug sensitivity score DSS3: 32.7
UM-UC-9
  drug sensitivity score DSS3: 22.1
